# Paper PMC4013602
# Chains of the proteins cited; added tags and fusions are not shown. Lines headed by an entry give the natural chain unless they say otherwise; changes in a name come on top. A line that says so, or that is headed by a name, gives the form on record, which may keep a tag or linker.
# UniProt P23977: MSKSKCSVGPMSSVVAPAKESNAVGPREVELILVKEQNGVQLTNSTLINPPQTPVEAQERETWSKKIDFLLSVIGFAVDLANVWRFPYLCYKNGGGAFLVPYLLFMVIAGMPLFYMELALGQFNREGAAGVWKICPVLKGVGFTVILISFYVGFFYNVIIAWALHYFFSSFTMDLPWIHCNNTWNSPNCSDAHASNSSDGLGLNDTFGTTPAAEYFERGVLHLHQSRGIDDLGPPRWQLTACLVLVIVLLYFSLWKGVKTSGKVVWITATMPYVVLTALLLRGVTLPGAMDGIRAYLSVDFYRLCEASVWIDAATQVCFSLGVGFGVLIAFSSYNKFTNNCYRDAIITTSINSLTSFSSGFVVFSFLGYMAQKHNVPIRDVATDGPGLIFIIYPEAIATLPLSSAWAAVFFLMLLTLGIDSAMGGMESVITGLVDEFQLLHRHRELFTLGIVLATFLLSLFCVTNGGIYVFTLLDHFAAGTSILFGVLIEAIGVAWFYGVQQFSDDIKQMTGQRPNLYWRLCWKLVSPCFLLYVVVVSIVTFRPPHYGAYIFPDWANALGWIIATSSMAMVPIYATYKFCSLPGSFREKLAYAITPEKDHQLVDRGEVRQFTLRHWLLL
# dopamine D2short (D2S) receptor, presynaptic D2 autoreceptor (P61169-2, form named): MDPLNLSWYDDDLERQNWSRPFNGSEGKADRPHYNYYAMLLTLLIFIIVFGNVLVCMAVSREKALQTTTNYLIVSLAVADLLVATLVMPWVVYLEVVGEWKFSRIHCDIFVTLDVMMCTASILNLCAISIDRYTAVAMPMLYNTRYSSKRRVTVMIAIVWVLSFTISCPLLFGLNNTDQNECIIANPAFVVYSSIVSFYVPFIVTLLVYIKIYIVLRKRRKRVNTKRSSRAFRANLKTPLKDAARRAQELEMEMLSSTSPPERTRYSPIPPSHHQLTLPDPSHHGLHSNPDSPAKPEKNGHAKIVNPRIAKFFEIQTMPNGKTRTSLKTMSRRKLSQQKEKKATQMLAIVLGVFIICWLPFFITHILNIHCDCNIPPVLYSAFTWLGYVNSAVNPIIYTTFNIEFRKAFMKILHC
# Results are given in words; binding and its absence hold for the method and conditions named. Binding seen in cells or lysates may run through a third protein. Some binding calls cover weakened binding; strength is not graded here.
# Molecular target: dopamine transporter (DAT) (rat (endogenous in striatal synaptosomes)) (UniProt P23977)
# Experiment: co-IP; Dynabeads with D2 receptor antibody (AB5084P) or DAT antibody (SC1433), 12 h at 4 °C; striatal synaptosomal fractions (200 μg protein in 100 μL RIPA buffer), 12 h at 4 °C; western blot with DAT or D2 receptor antibody; rats given saline, single METH (6 mg/kg i.v., killed at 30 min) or binge METH (4 × 10 mg/kg i.p., killed at 1 h)
substance,measurement,value
"dopamine D2short (D2S) receptor, presynaptic D2 autoreceptor (from UniProt P61169-2 1-415)",binding,binds
